Results are given in words; binding and its absence hold for the method and conditions named. Some binding calls cover weakened binding; strength is not graded here. Ends that are not written are not given here.
Key:
[1] = target: T1, adjacent 10 aa and 13 aa cyclic ApoC3 peptides with the consensus motif … (human); test: cyclic ApoC3 peptide microarray, antibody at 1 µg/ml, fluorescent secondary antibody
T1 sequence (peptide, cyclic (thioether)): FSEFWDLDPE

Sequences of proteins named here, by UniProt entry; tags and fusion partners are left off. A change or cut given only in a name is not applied to a line headed by its entry.
UniProt P02656: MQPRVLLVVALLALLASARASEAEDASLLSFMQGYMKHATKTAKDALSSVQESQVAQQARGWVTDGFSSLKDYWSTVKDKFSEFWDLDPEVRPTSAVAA

[2] = target: T1, adjacent 10 aa and 13 aa cyclic ApoC3 peptides with the consensus motif … (human); test: cyclic ApoC3 peptide microarray, antibody at 1 µg/ml
[3] = target: T1, adjacent 10 aa and 13 aa cyclic ApoC3 peptides with the consensus motif … (human); test: cyclic ApoC3 peptide microarray, antibody at 0.2 µg/ml
[4] = target: T1, adjacent 10 aa and 13 aa cyclic ApoC3 peptides with the consensus motif … (human); test: cyclic ApoC3 peptide microarray, antibody at 0.2 µg/ml, fluorescent secondary antibody
[5] = target: T2, adjacent 13 aa cyclic ApoC3 peptides with the consensus motif … (human); test: cyclic ApoC3 peptide microarray, antibody at 1 and 10 µg/ml, fluorescent secondary antibody
T2 sequence (peptide, cyclic (thioether)): GWVTDGFSSLK

[6] = target: T2, adjacent 13 aa cyclic ApoC3 peptides with the consensus motif … (human); test: cyclic ApoC3 peptide microarray, antibody at 1 µg/ml and 10 µg/ml
[7] = target: human ApoC3 (huApoC3), native protein purified from human serum (human) (UniProt P02656); test: ELISA, huApoC3 coated directly, scFv periplasmic extract

B1: Llama antibody 5E5 (antibody, V domains shown)
VH: QLQLVESGGGLVQPGGSLRLSCAASGFTFGTYSMRWVRQVPRKALEWVSSISTDGGGTAYRDSVKGRFTISRDNAKNTLYLQMNNLKPEDTAIYYCVIAGYSDWGQGTQVTVSS
VL: ATMLTQSPGSLSVVPGESASISCKTSQGLVHSDGKTYFYWFLQKPGQSPQQLIYQVSNRASGVPDRFTGSGSGTDFTLKISGVKAEDAGVYYCAQGTYYPHTFGSGTRLEIK
notes: detected with goat anti-human IgG (Fc); also called mAb 5E5
**Q.** What does the source list for B1?
**A.** binding [1]: binds; binding [2]: binds

B2: Llama antibody 6A6 (antibody, V domains shown)
VH: EVQLVESGGGLVQPGGSLRLSCAASGFTFSSYAGRWVRQVPGKGLEWVSSINAGGGSTSYADSVKGRFTISRDNAKNTLYLQMNSLKPEDTAKYYCTQNSYRYWGQGTRVAVSS
VL: DVVLTQTPGSLSVVPGESASISCKASQSLIHTDGKTYLYWLLQKPGQRPQLLIYQVSSHESGVPDRFTGSGSGTDFTLKISGVKAEDAGVYYCAQATYNPRTFGQGTKLEIK
**Q.** For B2, which binding [3] is on record?
**A.** The binding was “binds”.

**Q.** What about the binding [4] of the same binder?
**A.** The binding was “binds”.

B3: Llama antibody 14C7 (antibody, V domains shown)
VH: QVQVQESGPGLVKPSQTLSLTCTVSGGSITTNSYYWSWIRQPPGKGLEWMGAIDYSGDTYYSPSLKSRTSISRDTSKNQFTLQLTSVTPEDTAVYYCVSRIPTGEYWGQGTQVTVSS
VL: QTVVTQEPSLSVSPGGTVTLTCGLNSGSVTSSNYPDWYQQTPGQAPRLLIYNTNSRHSGVPSRFSGSISGNKAALTITGAQPEDEADYYCALYMGSDSVVFGGGTHLTVL
**Q.** Which binding [5] does the source give for B3 here?
**A.** The binding was “binds”.

**Q.** And the binding [6]?
**A.** Its binding is “binds”.

B4: 5A4 scFv (scFv, V domains shown)
VH: QLQLVESGGGLVQPGGSLRLSCVASGFAFSHYTMYWVRQAPVRGLERVSAISGGGDRTIYTDSVKGRFTISRDNAANALYLQMNSLQPEDTAVYYCVAQGYEYWGQGTRVTVSS
VL: ATMLTQSPGSLSVVPGESASISCKAIQSLVHTDGKTYLYWFLQKPGQSPQRLIYQVSNRGSGVPDRFTGSGSGTDFTLKISGVKAEDAGVYYCAQGTYSSKTFGQGTKLEIK
**Q.** For B4, which binding [7] is on record?
**A.** The binding was “binds”.

B5: 8H4 scFv (scFv, V domains shown)
VH: ELQLVESGGGLVQPGRSLRLSCAASGFTFSSYSMRWVRQTPGKGLEWVTSINSDGGSTKYSDSVKGRFTISRDNAKNTLYLQMNNVKPEDTAIYYCAIQGYTDWGQGTQVTVSS
VL: DVVLTQTPGSLSVVPGESASISCKVSQSLVHSDGKTYLYWLLQKPGQSPQRLIYQVSNRDSGVPDRFTGSGSGTDFTLKISGVKAEDAGVYYCAQGTYNPYTFGSGTRLEIK
**Q.** With B5 as the binder, how does the binding [7] read?
**A.** Its binding is “binds”.
